Measurements: US20030229204A1 (Dana-Farber, published 2003)
Results are given in words; binding and its absence hold for the method and conditions named. Binding can be weak; no strength is given. Sequences can lack the tags named with a protein. For some assays here: In cells and extracts the contact can be indirect.

Assays:
[1] = biological target: retinoic acid receptor (RARα); assay: summary of the in vitro binding assays of Example IV
[2] = biological target: thyroid hormone receptor (TRβ); assay: as above
[3] = biological target: thyroid hormone receptor (TRβ); assay: GST pull-down of in vitro-translated 35S-labeled receptor, autoradiography
PPARδ = assay: as above
[4] = biological target: retinoic acid receptor (RARα); assay: GST pull-down of in vitro-translated 35S-labeled receptor, with all-trans retinoic acid (1 µM)

binding [1]: binds
binding [2]: binds
binding [3]: binds
binding (PPARδ): binds
binding [4]: binds
B1: PGC-1 (aa 36-797) fused to GST (protein, not shown: a dimerising Fc or GST)
chain: LSELDVNDLDTDSFLGGLKWCSDQSEIISNQYNNEPANIFEKIDEENEANLLAVLTETLDSLPVDEDGLPSFDALTDGAVTTDNEASPSSMPDGTPPPQEAEEPSLLKKLLLAPANTQLSYNECSGLSTQNHAANHTHRIRTNPAIVKTENSWSNKAKSICQQQKPQRRPCSELLKYLTTNDDPPHTKPTENRNSSRDKCASKKKSHTQPQSQHAQAKPTTLSLPLTPESPNDPKGSPFENKTIERTLSVELSGTAGLTPPTTPPHKANQDNPFKASPKLKPSCKTVVPPPTKRARYSECSGTQGSHSTKKGPEQSELYAQLSKSSGLSRGHEERKTKRPSLRLFGDHDYCQSLNSKTDILINISQELQDSRQLDFKDASCDWQGHICSSTDSGQCYLRETLEASKQVSPCSTRKQLQDQEIRAELNKHFGHPCQAVFDDKSDKTSELRDGDFSNEQFSKLPVFINSGLAMDGLFDDSEDESDKLSYPWDGTQPYSLFDVSPSCSSFNSPCRDSVSPPKSLFSQRPQRMRSRSRSFSRHRSCSRSPYSRSRSRSPGSRSSSRSCYYYESSHYRHRTHRNSPLYVRSRSRSPYSRRPRYDSYEAYEHERLKRDEYRKEHEKRESERAKQRERQKQKAIEERRVIYVGKIRPDTTRTELRDRFEVFGEIEECTVNLRDDGDSYGFITYRYTCDAFAALENGYTLRRSNETDFELYFCGRKQFFKSNYADLDTNSDDFDPASTKSKYDSLDFDSLLKEAQRSLRR
